According to US20110038791A1, “METHODS FOR INHIBITING SIX1 AND EYA PROTEINS” (priority 2008, published 2011):
No constants are given. Whether binding was seen depends on the method and setting. For part of these data: In cells and extracts the contact can be indirect. Some entries that bind do so weakly or less than the wild type.

B1: Six1 (protein, UniProt Q15475 1-284, looked up)
chain: MSMLPSFGFTQEQVACVCEVLQQGGNLERLGRFLWSLPACDHLHKNESVLKAKAVVAFHRGNFRELYKILESHQFSPHNHPKLQQLWLKAHYVEAEKLRGRPLGAVGKYRVRRKFPLPRTIWDGEETSYCFKEKSRGVLREWYAHNPYPSPREKRELAEATGLTTTQVSNWFKNRRQRDRAAEAKERENTENNNSSSNKQNQLSPLEGGKPLMSSSEEEFSPPQSPDQNSVLLLQGNMGHARSSNYSLPGLTASQPSHGLQTHQHQLQDSLLGPLTSSLVDLGS
B2: Eya2 Eya Domain (ED) (enzyme, human, UniProt O00167 253-538, looked up)
chain: SKRSSDPSPAGDNEIERVFVWDLDETIIIFHSLLTGTFASRYGKDTTTSVRIGLMMEEMIFNLADTHLFFNDLEDCDQIHVDDVSSDDNGQDLSTYNFSADGFHSSAPGANLCLGSGVHGGVDWMRKLAFRYRRVKEMYNTYKNNVGGLIGTPKRETWLQLRAELEALTDLWLTHSLKALNLINSRPNCVNVLVTTTQLIPALAKVLLYGLGSVFPIENIYSATKTGKESCFERIMQRFGRKAVYVVIGDGVEEEQGAKKHNMPFWRISCHADLEALRHALELEYL

Key:
[1] = biological target: T1, Eya2 Eya Domain (ED) (human) (UniProt O00167); experiment: ELISA, plate coated with Eya2 ED, Six1 detected with anti-Six1 antibody and HRP secondary antibody
T1 sequence (looked up): B2 chain

[2] = biological target: T1, Eya2 Eya Domain (ED) (human); experiment: gel filtration co-elution, SDS-PAGE of fractions
[3] = biological target: T2, Six1 (UniProt Q15475); experiment: gel filtration co-elution, SDS-PAGE of fractions
T2 sequence (looked up): B1 chain

Binder	binding [1]	binding [2]	binding [3]
B1	binds	binds	–
B2	–	–	binds
